Experimental data taken from patent US8058272B2, “Organic compounds” (Novartis AG, priority 2006, dated 2011).
Some results were stated once for a whole list of compounds, not compound by compound. Some ranges recur; such a range may be that of the whole group of compounds.

Chains of the proteins cited; added tags and fusions are not shown. Residues count along the entry.
UniProt P98170, 241-356: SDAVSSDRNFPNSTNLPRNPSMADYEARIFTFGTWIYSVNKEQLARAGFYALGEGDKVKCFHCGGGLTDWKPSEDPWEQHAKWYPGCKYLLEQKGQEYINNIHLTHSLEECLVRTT

What follows are molecules tested against T1, GST-BIR3 fusion protein (Homo sapiens, UniProt P98170) (assay: TR-FRET competition assay of biotinylated Smac binding to GST-BIR3). Conditions: competition with Biotin-Smac for GST-BIR3, Eu-Streptavidin donor, anti-GST-APC acceptor.
T1 construct: fused on or other part: GST tag, detected by anti-GST-APC

IC50 (concentration of compound inhibiting 50% of Smac binding), 1 to 10000 nM:
CN[C@@H](C)C(=O)Nc1ccc(-c2cccc(C(=O)NC3CC3)c2)n(Cc2cncc(-n3ccc4cc(F)ccc43)c2)c1=O [Example 74, N-Cyclopropyl-3-[1-[5-(5-fluoro-indol-1-yl)-pyridin-3-ylmethyl]-5-((S)-2-methylamino-propionylamino)-6-oxo-1,6-dihydro-pyridin-2-yl]-benzamide]
CNC(C)C(=O)Nc1ccc(-c2cccc(C(=O)NCC(C)C)c2)n(Cc2cncc(C(=O)c3ccc(F)cc3)c2)c1=O (stereo in doubt) [Example 38, 3-[1-[5-(4-Fluoro-benzoyl)-pyridin-3-ylmethyl]-5-((S)-2-methylamino-propionylamino)-6-oxo-1,6-dihydro-pyridin-2-yl]-N-isobutyl-benzamide]
CNC(C)C(=O)Nc1ccc(-c2cnc3ccccc3c2)n(Cc2cncc(C(=O)c3ccc(F)cc3)c2)c1=O (stereo in doubt) [Example 58, (S)-N-{1-[5-(4-Fluoro-benzoyl)-pyridin-3-ylmethyl]-2-oxo-6-quinolin-3-yl-1,2-dihydro-pyridin-3-yl}-2-methylamino-propionamide]
